Each number is a percent effect as filed.
How 0% and 100% were set is not recorded. Most values in the screen are low, and negative values occur.
Compounds were drawn at random from those tested, without regard to their results.
Two or more numbers in one place are separate tests of the same structure; such repeats can differ widely.

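Viability assay of Plasmodium falciparum sporozoites; the read-out is not stated. The concentration is filed as 10 mM, unlikely as a test dose, so the dose is not known. Higher reads as lower viability (inferred: compounds with an IC50 in retests scored well above the rest). Strong results were mostly tested again. Of about 34,000 compounds tested this way, about 280 (0.84%) reached 50% or more in at least one test.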

| Compound | Percent Effect |
|---|---|
| `COCCN(C)C(C)Cc1ccccc1OC` (stereo not shown) | 7.135 |
| `COc1ccc(NC(=O)Cn2nc(C)c(C)cc2=O)cc1` | 0.7895 |
| `CN(Cc1ccc2nsnc2c1)C(=O)Cn1ncc(N(C)C)cc1=O` | -5.077 |
| `CCc1cc(C(=O)N2Cc3ccccc3OC3(CCOCC3)C2)on1` | 7.147 |
| `Cc1ccc(CN2CCc3onc(C(=O)NCCN(C)C)c3C2)o1.O=C(O)C(F)(F)F.O=C(O)C(F)(F)F` | -4.024 |
| `NC(=O)NCCC(=O)NCc1nn(-c2ccccc2)c2c1CCC2` | 12.21 |
| `Cc1nn(CC(=O)N2CCN(Cc3cccnc3)CC2)c(C)c1Cl` | -2.449 |
| `Cc1cccc(N2CCOCC3(C2)CN(c2cccnc2)C(=O)CO3)n1` (stereo not shown) | 7.62 |
| `Cc1nc(CN2CCOC(CNc3cccnn3)C2)cs1` (stereo not shown) | -4.48 |
| `CCC(=O)N1CCCCC1c1nc(N(C)C)ncc1-c1cc(C)no1` (stereo not shown) | -2.331 |
| `CCc1nccn1C1CCCN(C(=O)Cc2cn3ccsc3n2)C1` (stereo not shown) | 3.646 |
| `CCc1nc(C2CCCN2CC(=O)Nc2c(C)n[nH]c2C)no1` (stereo not shown) | 7.686 |
| `c1cc(N2CCCCC2)ccc1-c1noc(CN2CCOCC2)n1` | 1.124 |
| `Cc1nnc2n1CCN(C(=O)c1cc3cc(F)ccc3[nH]1)C2` | 0.06506 |
| `Cc1cc(C(=O)O)cc(S(=O)(=O)Nc2ccc3c(c2)OCCO3)c1C` | 24.31 & 12.71 & 29.08 |
| `CCS(=O)(=O)N1CC(=O)N(Cc2ccccc2OC)CC(O)C1` (stereo not shown) | -38.15 |
| `Cc1cc(CN2CCN(C(C)C)C(CCO)C2)[nH]n1` (stereo not shown) | 11.05 |
| `CCCNC(=O)NC(=O)CNC(C)(C)c1ccc2c(c1)OCCO2` | 5.359 |
| `Cc1ccc(N2CCCC(NCc3nc(C)c(C)o3)C2)nn1` (stereo not shown) | -4.535 |
| `CC(=O)N1CCC2(CCCN(S(=O)(=O)c3ccccc3)C2)C1` (stereo not shown) | 15.15 |
| `Cc1cncc(C2CCCN(C(=O)c3c[nH]c(=O)[nH]c3=O)C2)n1` (stereo not shown) | -16.96 |
| `Cc1ccc(C(N)=O)cc1NCCOc1cccc(C#N)c1` | -11.72 |
| `O=C(CCOc1ccccc1F)N1CCCCC1Cn1cccn1` (stereo not shown) | -3.211 |
| `CC(Cn1cccn1)NC(=O)Nc1nnc(C2CC2)s1` (stereo not shown) | 4.906 |
| `C[C@@H]1CN(C(=O)c2c[nH]c(=O)c(Cl)c2)CC[C@@]1(O)C1CCOCC1` | -11.67 |
| `CCc1n[nH]c(C2CN(CC(=O)NCCc3ccsc3)CCO2)n1` (stereo not shown) | -4.132 |
| `Cc1ccc(-c2nc(CC(=O)N3CCN(c4cnccn4)CC3)cs2)o1` | 5.855 |
| `Cc1cc(CN2CCCC2Cn2cccn2)no1` (stereo not shown) | 8.684 |
| `N#CCCCS(=O)(=O)N1CCCC1CC(=O)c1cccs1` (stereo not shown) | -3.412 |
| `O=C(O)C(F)(F)F.O=C(O)C(F)(F)F.O=C(O)C(F)(F)F.[H][C@]12CCN(Cc3ccccn3)[C@@]1([H])CC[C@H](COCCN1CCCC1)O2` | -0.4296 |
| `Cc1ccc(OCC2CCCN(C(=O)Cn3ccccc3=O)C2)cc1` (stereo not shown) | -11.09 & -7.358 |
| `Cc1ccsc1-c1nccn1C1CC(=O)N(C(C)C)C1` (stereo not shown) | 8.462 |
| `COc1cc(S(=O)(=O)Nc2cn[nH]c2)ccc1Br` | -5.006 |
| `O=C(NCC1Cn2nnc(-c3ccsc3)c2CO1)N1CCCC1` (stereo not shown) | -2.47 |
| `CN(C)c1ncc2c(O)nc(C3CCNCC3)cc2n1.Cl` | -0.2252 |
| `CSc1cccc(CNC(=O)C2CC(=O)N(CCN(C)C)C2)c1` (stereo not shown) | -3.433 |
| `CS(=O)(=O)N1CC[C@]2(C[C@@H](OCC3CCC3)CO2)C1` | -1.153 |
| `CC(=O)N(Cc1ncc(C(C)C)o1)C1CCN(Cc2ncc[nH]2)C1` (stereo not shown) | 2.757 |
| `CC(C)n1nc(CN2CCCC2=O)c2c1CN(C(=O)c1ccno1)C2` | 0.1751 |
| `O=c1oc(-c2cccs2)nn1CC(O)c1ccccc1` (stereo not shown) | -8.155 |
| `Cc1nc2ccnn2c(C)c1CCC(=O)N1CCN2CCCCC2C1` (stereo not shown) | 4.758 |
| `NC(=O)CN1CCCN(C(=O)Cc2ccc3ccccc3c2)CC1` | 7.598 |
| `O=C(NCc1nnc2n1CCC2)N1CCc2sccc2C1` | 5.874 |
| `CCNc1cc2c(nn1)CCN(C(=O)c1ccsc1)C2` | 13.87 |
| `Cc1noc(C2CCCCN2C(=O)NCc2ccco2)n1` (stereo not shown) | 6.502 |
| `COc1nc2c(cc1C(=O)N(C)Cc1noc3c1CCCC3)CCC2` | -18.84 & -35.99 |
| `Cc1ccc(N2CCCC3(CCN(C(=O)c4sccc4C)C3)C2)nn1` (stereo not shown) | -1.618 |
| `Cc1ccc(C(=O)N2CCCC(NC(=O)C(C)C)C2)c(O)c1` (stereo not shown) | 7.36 |
| `Cc1ccnc(NC(=O)c2ccc(Br)o2)c1` | -47.78 & -14.36 |
| `O=C(O)C(F)(F)F.O=C(O)C(F)(F)F.[H][C@@]12COC[C@]1([H])[C@@H](OCc1ccccn1)CN2Cc1cccc(C)n1` | 6.888 |
| `CC(C)c1nc(C2CCCN(C(=O)CCCn3cncn3)C2)no1` (stereo not shown) | 12.64 |
| `CCn1cc(Br)c(C(=O)NCc2cnn(C)c2)n1` | -1.527 |
| `NC(=O)C1CCN(C(=O)c2ccc(Cn3cc(Br)cn3)cc2)CC1` | 6.094 |
| `CCN(Cc1cccc(C)c1)Cc1nc2c(cnn2C)c(=O)[nH]1` | 5.204 |
| `Cc1cncc(C2CCCN(Cc3ccncc3)C2)n1` (stereo not shown) | 2.176 |
| `Cc1ncc(CN(C)Cn2nc(-c3ccccc3)oc2=O)s1` | -15.91 |
| `CC(C)(C)C(=O)N1CCC(c2noc(C3CCC(=O)N3)n2)CC1` (stereo not shown) | 1.395 |
| `Cc1cc(C(=O)N(CC(=O)O)CC(C)C)ccc1F` | -17.67 |
| `O=C(O)C(F)(F)F.[H][C@]12CCN(c3ncccn3)[C@@]1([H])CC[C@@H](COCc1csc(C)n1)O2` | -10.96 |
| `COCCS(=O)(=O)N(Cc1ccsc1)c1ccccc1` | -2.519 |
| `CC1CCc2nc(O)c(C(=O)NCCN(C)C)cc2C1` (stereo not shown) | -6.36 |
| `Cc1nc(Nc2nnc(C)s2)cc(C2CCCN2S(C)(=O)=O)n1` (stereo not shown) | 17.98 |
| `COc1cc(C(=O)Nc2c(C)noc2C)ccc1C` | -2.385 |
| `CCn1c(CC2CCN(C(=O)C3CC(C(C)C)=NO3)CC2)nn(C)c1=O` (stereo not shown) | -0.7105 |

Data taken from ChEMBL document CHEMBL3988442, “University of Dundee, Small-Polar-MMV Screening Library” (2021).